Experimental findings from patent US20100285005A1 (Eli Lilly, published 2010) are described below.

The test concerns the target human CXCR4 receptor with a C-terminal linear C9 peptide tag (human). The test is described as follows: SPR (Biacore 2000), C9-tagged CXCR4 captured by 1D4 antibody, 4 °C. For orientation: SPR reads the build-up and loss of mass on a sensor chip optically.

Changes are numbered by the printed parent chain. These are yes or no findings as the source states them, for the method shown. Binding can be weak; no strength is given.

B1: Antibody III (antibody, human IgG4 S228P, kappa, F234A L235A, V domains shown)
VH: EVQLVESGGGLVQPGGSLRLSCAASGFTSTDYYFSWVRQAPGKGLEWVGFIRYKSKGYTTEYSGSVKGRFTISRDDSKNSLYLQMNSLKTEDTAVYYCAREPITTDPRDYWGQGTLVTVSS
VL: DIVMTQSPDSLAVSLGERATINCKSSQSLFNSRTRKKYLAWYQQKPGQPPKLLIYWASKRKSGVPDRFSGSGSGTDFTLTISSLQAEDVAVYYCKQSRFLRAFGQGTKLEIKR
notes: Human engineered anti-CXCR4 antibody; also called the antibody III
On to B1, for which the binding entry is listed as “binds”.

B2: Antibody V (antibody, human IgG4 S228P, kappa, F234A L235A, V domains shown)
VH: B1 VH with Y53H
VL: B1 VL
As for B2, the binding result was “binds”.

B3: Antibody II (antibody, human IgG4 S228P, kappa, F234A L235A, V domains shown)
VH: B1 VH with Y53S
VL: B1 VL
For B3, the binding entry was “binds”.

B4: Antibody I (antibody, human IgG4 S228P, kappa, F234A L235A, V domains shown)
VH: B1 VH with Y53T
VL: B1 VL
Take B4: the binding result is listed as “binds”.

B5: Antibody IV (antibody, human IgG4 S228P, kappa, F234A L235A, V domains shown)
VH: B1 VH with Y53N, S55R
VL: B1 VL
As to B5, the binding entry is on record as “binds”.
